Test results: PubChem BioAssay AID504842 (National Center for Advancing Translational Sciences (NCATS), 2011)
Screen size: about 330,000 compounds; about 100 (0.03%) were called active. The shares of active, inactive and inconclusive entries below differ from those in the screen. Calls come from the whole dose curve; as a rule, active = well fitted inhibition curve with a large enough effect; inconclusive = small, poorly fitted or top-dose-only effect; inactive = flat fitted curve, though single readings scatter. A potency beside an inconclusive call is a rough fit, not a confirmed value.
Note: nearly all actives have a fitted effect of over 80% in size.
Potency is the fitted concentration of half-maximal effect.
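Throughout, for potency: enzyme at 25 nM with ATP substrate at 10 µM during the reaction.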

What follows are compounds tested on Chaperonin Mm-Cpn (Methanococcus maripaludis) (assay: Inhibitors of TCP-1 ring complex (TRiC) of Methanococcus maripaludis (MmCpn): qHTS). Conditions: purified Mm-Cpn ATPase, ADP Transcreener TR-FRET; series mostly up to 76.9 µM.
How it was run: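 Purified archaeal Mm-CPN (25nM final) preincubated 10 min at 37degC with compound, then 10uM ATP for 30 min at 37degC; ADP measured by HTRF Transcreener TR-FRET; buffer 30 mM TRIS pH 7.4, 100mM KCl, 5mM MgCl2, 1mM DTT.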
In the case of Cc1cccn2c(=O)c(/C=C(\C#N)C(=O)NC3CCS(=O)(=O)C3)c(Oc3ccc(F)cc3)nc12 (stereo not drawn), the Potency is reported as inconclusive: 89.1 µM [inhibitor, single point].
CCC(=O)NCCc1nc2cc(NC(=O)COc3ccccc3)ccc2n1C was tested, and the Potency was inconclusive: 100 µM [inhibitor, single point].
Cc1ccc(-c2nc3c(c(=O)c4ccccc4n3C)c(=O)n2-c2ccc(F)cc2)cc1 was tested, and the Potency was inconclusive: 178 µM [inhibitor, partial curve, poor fit].
C=CCN=C1SCC(=O)N1S(=O)(=O)c1ccccc1 was tested, and the Potency was inconclusive: 22.4 µM [inhibitor, single point].
CS(=O)(=O)c1ccc(Cl)c(NC(=O)C2CC(=O)N(Cc3ccco3)C2)c1 (stereo not drawn) was tested, and the Potency was inconclusive: 100 µM [inhibitor, partial curve, poor fit].
With COc1ccc(NC(=S)NCc2ccccc2)c(OC)c1 the Potency was “inactive”.
COc1ccc(C(=O)NC(=S)N(Cc2ccccc2)Cc2ccccc2)cc1 was tested, and the Potency was “inactive”.
With COc1cccc(COC(=O)C2CC(=O)N(Cc3ccco3)C2)c1OC (stereo not drawn) the Potency was inconclusive: 79.4 µM [inhibitor, single point].
With COc1cccc(CN(Cc2ccco2)C(c2ccc(F)cc2)c2nnnn2C(C)(C)C)c1 (stereo not drawn) the Potency was “inactive”.
In the case of CCCCn1c(=O)[nH]c2c(oc3ccccc32)c1=O, the Potency is reported as inconclusive: 20 µM [inhibitor, single point].
COc1cc2cc(CN(CCN3CCOCC3)C(=O)Nc3ccc(F)cc3)c(=O)[nH]c2cc1OC was tested, and the Potency was inconclusive: 891 µM [inhibitor, partial curve, poor fit].
For CN(C)c1ccc(C2CNC(c3ccc(Cl)c([N+](=O)[O-])c3)c3[nH]c4ccccc4c32)cc1 (stereo not drawn), the Potency was “inactive”.
For COc1ccc(OC(C)C(=O)N2CCCc3ccccc32)cc1 (stereo not drawn), the Potency was inconclusive: 25.1 µM [inhibitor, single point].
For O=C(NN1CC(C(=O)OCc2ccccc2F)CC1=O)c1ccccc1 (stereo not drawn), the Potency was inconclusive: 22.4 µM [inhibitor, single point].
CCCCCCN1C=CC(=C/C=C(\C#N)C(=O)OCC)C=C1 was tested, and the Potency was inconclusive: 89.1 µM [inhibitor, single point].
COc1cc(-c2nnc(SCC(=O)N3c4ccccc4Sc4ccccc43)o2)cc(OC)c1OC was tested, and the Potency was “inactive”.
With O=C(Nc1ccc2[nH]ccc2c1)c1ccc(F)cc1 the Potency was “inactive”.
With COc1ccc(CC(=O)NCc2ccccc2)cc1S(=O)(=O)N1CCOCC1 the Potency was “inactive”.
O=C(c1ccccc1)c1ccccc1N1C(=O)C=CC1=O was tested, and the Potency was “inactive”.
For CC1CCCN(c2ncnc3c2cnn3-c2ccccc2)C1 (stereo not drawn), the Potency was inconclusive: 20 µM [inhibitor, single point].
CCOc1ccc(S(=O)(=O)c2c(C(=O)c3ccccc3)cnc3cc4c(cc23)OCCO4)cc1 was tested, and the Potency was inconclusive: 126 µM [inhibitor, partial curve, poor fit].
With COC(=O)CCSc1cc(NCCOC(C)=O)c([N+](=O)[O-])c2nonc12 the Potency was inconclusive: 89.1 µM [inhibitor, single point].
With Cc1ccc(NC(=O)COC(=O)c2ccc(NC(=O)CC#N)cc2)cc1S(=O)(=O)N1CCOCC1 the Potency was active: 31.6 µM.
O=C1OCCC1Sc1nnc(-c2cccs2)n1Cc1ccccc1 (stereo not drawn) was tested, and the Potency was inconclusive: 14.1 µM [inhibitor, single point].
CCSc1nsc(NC(=O)Nc2ccccc2OC)n1 was tested, and the Potency was inconclusive: 22.4 µM [inhibitor, single point].
CCn1c(SCC(=O)Nc2ccc3c(c2)OCO3)nnc1-c1cnccn1 was tested, and the Potency was inconclusive: 14.1 µM [inhibitor, single point].
For C=CCn1c(SCC(=O)N2CCc3ccccc3C2)nc2sc(C)c(C)c2c1=O, the Potency was inconclusive: 70.8 µM [inhibitor, single point].
With Cc1cc2cc3c(cc2nc1SCC(=O)Nc1ccccc1)CCC3 the Potency was inconclusive: 89.1 µM [inhibitor, single point].
In the case of COc1ccc(-c2c(-c3ccccc3OC)sc3ccccc23)cc1OC, the Potency is reported as active: 35.5 µM.
In the case of Cc1cccc(N2CCN(c3nc(C)cc(C)c3C#N)CC2C)c1 (stereo not drawn), the Potency is reported as inconclusive: 11.2 µM [inhibitor, single point].
In the case of COc1ccc(C2OCC3(O)C(c4ccc(OC)c(OC)c4)OCC23)cc1OC (stereo not drawn), the Potency is reported as “inactive”.
For Cc1c(NC(=O)C2CCCCC2)cc(C(=O)N2CCOCC2)cc1[N+](=O)[O-], the Potency was inconclusive: 11.2 µM [inhibitor, single point].
With CC(=O)c1sc(NC(=O)c2ccc3c(c2)OCO3)nc1C the Potency was inconclusive: 89.1 µM [inhibitor, single point].
In the case of O=C(CCC(=O)N1CCOc2ccccc21)NCc1ccccn1, the Potency is reported as inconclusive: 100 µM [inhibitor, single point].
COc1cc(OC)cc(-c2c(-c3cccs3)c3cc(-c4ccc5c(c4)OCCO5)ccc3n2C)c1 was tested, and the Potency was inconclusive: 200 µM [inhibitor, partial curve, poor fit].
For COc1cc(CNCCN2CCOCC2)ccc1OCc1ccccc1Cl, the Potency was inconclusive: 15.8 µM [inhibitor, single point].
COc1ccc(C(=O)N2CCn3c2nc2ccccc23)cc1 was tested, and the Potency was “inactive”.
In the case of Cc1ccc(-c2nc(-c3cccnc3)sc2CC(=O)Nc2ccc(C)c(Cl)c2)cc1, the Potency is reported as active: 28.2 µM.
In the case of O=C1CC(N2CCN(c3ccccn3)CC2)C(=O)N1c1ccc(F)cc1 (stereo not drawn), the Potency is reported as inconclusive: 56.2 µM [inhibitor, single point].
In the case of CCN(CC)CCn1nc2c3c(cccc3c1=O)-c1ccccc1-2, the Potency is reported as inconclusive: 22.4 µM [inhibitor, single point].
With O=C(OCC(=O)N1CCC(Cc2ccccc2)CC1)c1cc(Cl)ccc1O the Potency was inconclusive: 89.1 µM [inhibitor, single point].
With COC(=O)/C(=C\C(=O)c1ccccc1)Nc1cccc(C(F)(F)F)c1 the Potency was inconclusive: 20 µM [inhibitor, single point].
For O=C(NC(=S)N1CCN(C/C=C/c2ccccc2)CC1)c1ccc(F)cc1, the Potency was inconclusive: 316 µM [inhibitor, partial curve, poor fit].
In the case of CN(C)S(=O)(=O)c1ccc(C(=O)Nc2cc(S(=O)(=O)Nc3ccccc3Cl)ccc2N2CCCCC2)cc1, the Potency is reported as inconclusive: 126 µM [inhibitor, partial curve, poor fit].
COc1ccc(N(CC(=O)N2CCCC2)S(C)(=O)=O)cc1 was tested, and the Potency was inconclusive: 100 µM [inhibitor, single point].
With O=C(O)c1ccc(OCCOc2ccccc2)cc1 the Potency was inconclusive: 100 µM [inhibitor, single point].
With O=C(N/N=C/c1ccccn1)c1cccc([N+](=O)[O-])c1 the Potency was “inactive”.
With CCOC(=O)c1cc2c(ccn2-c2ccc(F)cc2)n1CC(=O)NC(C)(C)C the Potency was inconclusive: 22.4 µM [inhibitor, single point].
With CCOC(=O)N1CCN(S(=O)(=O)c2c(C)nc3sccn3c2=O)CC1 the Potency was inconclusive: 8.91 µM [inhibitor, single point].
In the case of O=C(Cc1ccccc1)N[C@@H](Cc1ccc(O)cc1)C(=O)O, the Potency is reported as inconclusive: 100 µM [inhibitor, single point].
CCCCOc1ccc(N(CC(=O)NC(C)C)C(=O)CCC(=O)Nc2ccccn2)cc1 was tested, and the Potency was inconclusive: 10 µM [inhibitor, single point].
For COC(=O)C(C)NC(=O)CNS(=O)(=O)c1ccc(F)cc1 (stereo not drawn), the Potency was “inactive”.
In the case of CCc1nc2ccc(C(=O)N(C)CC(=O)Nc3ccc(Cl)c(C(F)(F)F)c3)cc2nc1CC, the Potency is reported as “inactive”.
In the case of O=C(COC(=O)C1(c2ccc(F)cc2)CCCC1)NCc1ccco1, the Potency is reported as “inactive”.
With CC(=O)Nc1cccc(NC(=O)Cc2nc(-c3ccccc3)sc2-c2ccc(C)cc2)c1 the Potency was inconclusive: 89.1 µM [inhibitor, partial curve, poor fit].
For COc1ccc(CCNC(=O)c2nnn(CC(=O)Nc3cccc(F)c3)c2N)cc1OC, the Potency was inconclusive: 14.1 µM [inhibitor, single point].
CCOC(=O)c1cc2c(=O)n3ccccc3nc2n(CCCOC)c1=NC(C)=O was tested, and the Potency was inconclusive: 50.1 µM [inhibitor, single point].
In the case of CCN(CC)S(=O)(=O)c1ccc(N2CCOCC2)c(NC(=O)COc2ccccc2)c1, the Potency is reported as inconclusive: 112 µM [inhibitor, partial curve, poor fit].
For COc1ccc(S(=O)(=O)N2CCOC23CCN(C(=O)c2ccc(Cl)cc2Cl)CC3)cc1, the Potency was “inactive”.
For O=c1[nH]c2cc3c(cc2cc1CN(Cc1ccccc1)Cc1nnnn1Cc1ccco1)OCCO3, the Potency was “inactive”.
In the case of Cc1cc2cc(CNC(=O)c3ccc(S(=O)(=O)N4CCOCC4)cc3)ccc2n1C, the Potency is reported as inconclusive: 63.1 µM [inhibitor, partial curve, poor fit].
For Cc1cc(C)nc(/N=C(\N)Nc2ccc(OCCC(C)C)cc2)n1, the Potency was “inactive”.
In the case of Cc1ccccc1N1CCN(Cc2c[nH]c3ccccc23)CC1, the Potency is reported as “inactive”.
In the case of COc1cc(OC)cc(-c2sc3ccc(OC)cc3c2-c2ccc3cc[nH]c3c2)c1, the Potency is reported as inconclusive: 89.1 µM [inhibitor, partial curve, poor fit].
COc1ccccc1OCC(=O)N1CCN(S(=O)(=O)c2ccc(Cl)cc2)CC1 was tested, and the Potency was “inactive”.
For CCOC(=O)c1sc(NNC(=O)c2ccc(C)cc2)nc1C, the Potency was inconclusive: 10 µM [inhibitor, single point].
For COCCC(=O)N1CCC(Oc2ccc(C(=O)NCc3cc(C)n(C)n3)cc2)CC1, the Potency was inconclusive: 14.1 µM [inhibitor, single point].
For CCOc1ncccc1C(=O)OCC(=O)c1cc(C)n(Cc2ccco2)c1C, the Potency was inconclusive: 28.2 µM [inhibitor, partial curve, poor fit].
